# Assay results: the supplement of paper PMC6411743
# ± gives the standard deviation of the averaged measurements. The list shows a part of the results.
# Assays:
# Test in all cases: NP40-soluble protein abundance relative to vehicle (solubility fold change) (ratio); higher = more soluble protein in presence of GTP
# [1] = target: T1, DDX52 (UniProt Q9Y2R4)
# T1 sequence (whole entry): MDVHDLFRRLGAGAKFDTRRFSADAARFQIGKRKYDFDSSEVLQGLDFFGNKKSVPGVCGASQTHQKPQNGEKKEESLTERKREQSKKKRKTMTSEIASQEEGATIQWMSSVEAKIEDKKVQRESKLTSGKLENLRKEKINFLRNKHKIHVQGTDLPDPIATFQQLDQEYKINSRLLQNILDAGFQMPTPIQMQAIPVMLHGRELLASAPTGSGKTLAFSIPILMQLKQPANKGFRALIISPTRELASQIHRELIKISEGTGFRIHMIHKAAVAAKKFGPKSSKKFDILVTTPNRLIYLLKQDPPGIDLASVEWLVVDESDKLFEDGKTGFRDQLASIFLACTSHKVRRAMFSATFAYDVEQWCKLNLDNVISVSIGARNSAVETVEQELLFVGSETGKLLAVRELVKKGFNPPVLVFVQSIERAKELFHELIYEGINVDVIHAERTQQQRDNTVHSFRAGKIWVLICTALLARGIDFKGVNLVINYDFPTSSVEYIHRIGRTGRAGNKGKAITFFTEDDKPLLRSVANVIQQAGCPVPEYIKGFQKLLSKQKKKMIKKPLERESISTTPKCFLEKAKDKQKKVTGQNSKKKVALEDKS
# Procedure, shortened: (§1)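 Across three independent experiments, values are fold changes against the detergent-processed vehicle for each replicate, based on vsn-normalised intensities. The samples were Jurkat crude lysate treated with eight concentrations (0.1 to 10 mM) for 10 min at room temperature and then 3 min at 37 °C. Lysate was solubilised with 0.8% NP40 and benzonase, ultracentrifuged, and the supernatant analysed by TMT-labelled LC-MS/MS.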
# [2] = target: T2, DERA (UniProt Q9Y315)
# T2 sequence (whole entry): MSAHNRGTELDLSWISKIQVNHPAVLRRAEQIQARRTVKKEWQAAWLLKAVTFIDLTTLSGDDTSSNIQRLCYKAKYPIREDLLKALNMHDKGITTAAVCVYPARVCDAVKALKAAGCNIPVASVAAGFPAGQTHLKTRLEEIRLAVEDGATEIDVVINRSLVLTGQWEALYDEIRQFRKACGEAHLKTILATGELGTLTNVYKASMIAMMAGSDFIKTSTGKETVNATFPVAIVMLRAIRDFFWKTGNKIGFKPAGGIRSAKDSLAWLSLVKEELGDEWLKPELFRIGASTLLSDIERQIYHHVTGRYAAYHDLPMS
# Procedure, shortened: as §1
# [3] = target: T3, FHOD1 (UniProt Q9Y613)
# T3 sequence (whole entry): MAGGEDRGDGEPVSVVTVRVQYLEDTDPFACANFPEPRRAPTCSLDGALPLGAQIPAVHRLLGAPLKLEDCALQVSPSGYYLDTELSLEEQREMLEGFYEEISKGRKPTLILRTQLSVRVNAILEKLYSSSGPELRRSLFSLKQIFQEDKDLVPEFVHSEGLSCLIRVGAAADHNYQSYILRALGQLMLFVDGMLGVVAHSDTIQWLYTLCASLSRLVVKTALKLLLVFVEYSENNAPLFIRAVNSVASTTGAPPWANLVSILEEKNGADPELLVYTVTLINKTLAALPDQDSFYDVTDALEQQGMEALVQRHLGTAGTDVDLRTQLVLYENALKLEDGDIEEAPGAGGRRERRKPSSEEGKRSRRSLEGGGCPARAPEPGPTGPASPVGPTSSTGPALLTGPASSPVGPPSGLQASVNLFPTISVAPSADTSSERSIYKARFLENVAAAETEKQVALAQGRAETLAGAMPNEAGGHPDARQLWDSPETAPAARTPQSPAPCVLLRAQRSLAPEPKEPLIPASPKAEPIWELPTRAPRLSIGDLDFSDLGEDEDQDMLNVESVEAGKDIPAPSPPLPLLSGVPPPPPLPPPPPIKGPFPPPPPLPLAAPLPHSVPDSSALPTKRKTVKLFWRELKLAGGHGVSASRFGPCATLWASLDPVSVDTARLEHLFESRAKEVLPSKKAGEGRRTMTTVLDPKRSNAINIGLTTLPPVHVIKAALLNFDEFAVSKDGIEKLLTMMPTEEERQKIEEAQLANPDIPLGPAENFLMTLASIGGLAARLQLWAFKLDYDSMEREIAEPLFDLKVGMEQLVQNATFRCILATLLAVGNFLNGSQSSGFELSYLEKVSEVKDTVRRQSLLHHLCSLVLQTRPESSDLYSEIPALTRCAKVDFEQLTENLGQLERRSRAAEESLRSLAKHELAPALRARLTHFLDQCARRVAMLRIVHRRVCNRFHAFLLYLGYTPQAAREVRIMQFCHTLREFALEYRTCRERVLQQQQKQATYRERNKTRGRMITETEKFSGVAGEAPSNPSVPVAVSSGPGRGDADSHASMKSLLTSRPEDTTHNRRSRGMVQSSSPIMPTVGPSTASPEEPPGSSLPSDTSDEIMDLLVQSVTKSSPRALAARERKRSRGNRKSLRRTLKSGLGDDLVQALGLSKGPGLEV
# Procedure, shortened: as §1
# [4] = target: T4, FIS1 (UniProt Q9Y3D6)
# T4 sequence (whole entry): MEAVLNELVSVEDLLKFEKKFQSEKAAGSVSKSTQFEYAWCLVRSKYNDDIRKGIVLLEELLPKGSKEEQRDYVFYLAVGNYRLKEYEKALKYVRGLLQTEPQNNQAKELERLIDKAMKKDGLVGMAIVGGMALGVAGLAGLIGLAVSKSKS
# Procedure, shortened: as §1
smiles,measurement,setting,value
Nc1nc2c(ncn2[C@@H]2O[C@H](COP(=O)(O)OP(=O)(O)OP(=O)(O)O)[C@@H](O)[C@H]2O)c(=O)[nH]1 [guanosine triphosphate],NP40-soluble protein abundance,[1]; concentration: 4mM,1.35 ± 0.029
same,NP40-soluble protein abundance,[1]; concentration: 6mM,1.35 ± 0.049
same,NP40-soluble protein abundance,[1]; concentration: 8mM,1.47 ± 0.039
same,NP40-soluble protein abundance,[1]; concentration: 10mM,1.57 ± 0.042
same,NP40-soluble protein abundance,[2]; concentration: 0.1mM,1.05 ± 0.085
same,NP40-soluble protein abundance,[2]; concentration: 0.5mM,1.17 ± 0.19
same,NP40-soluble protein abundance,[2]; concentration: 1mM,1.16 ± 0.2
same,NP40-soluble protein abundance,[2]; concentration: 2mM,1.21 ± 0.23
same,NP40-soluble protein abundance,[2]; concentration: 4mM,1.2 ± 0.22
same,NP40-soluble protein abundance,[2]; concentration: 6mM,1.19 ± 0.23
same,NP40-soluble protein abundance,[2]; concentration: 8mM,1.2 ± 0.21
same,NP40-soluble protein abundance,[2]; concentration: 10mM,1.15 ± 0.21
same,NP40-soluble protein abundance,[3]; concentration: 0.1mM,1.03 ± 0.051
same,NP40-soluble protein abundance,[3]; concentration: 0.5mM,1.01 ± 0.023
same,NP40-soluble protein abundance,[3]; concentration: 1mM,0.992 ± 0.059
same,NP40-soluble protein abundance,[3]; concentration: 2mM,0.958 ± 0.042
same,NP40-soluble protein abundance,[3]; concentration: 4mM,0.99 ± 0.025
same,NP40-soluble protein abundance,[3]; concentration: 6mM,0.942 ± 0.049
same,NP40-soluble protein abundance,[3]; concentration: 8mM,0.921 ± 0.026
same,NP40-soluble protein abundance,[3]; concentration: 10mM,0.932 ± 0.074
same,NP40-soluble protein abundance,[4]; concentration: 0.1mM,1.08 ± 0.34
same,NP40-soluble protein abundance,[4]; concentration: 0.5mM,1.01 ± 0.23
same,NP40-soluble protein abundance,[4]; concentration: 1mM,1.14 ± 0.32
same,NP40-soluble protein abundance,[4]; concentration: 2mM,1.14 ± 0.23
same,NP40-soluble protein abundance,[4]; concentration: 4mM,1.1 ± 0.27
same,NP40-soluble protein abundance,[4]; concentration: 6mM,1.14 ± 0.18
same,NP40-soluble protein abundance,[4]; concentration: 8mM,1.1 ± 0.2
same,NP40-soluble protein abundance,[4]; concentration: 10mM,1.15 ± 0.34

# Random excerpt: 2 entries already listed
smiles,measurement,setting,value
Nc1nc2c(ncn2[C@@H]2O[C@H](COP(=O)(O)OP(=O)(O)OP(=O)(O)O)[C@@H](O)[C@H]2O)c(=O)[nH]1 [guanosine triphosphate],NP40-soluble protein abundance,[4]; concentration: 2mM,1.14 ± 0.23
same,NP40-soluble protein abundance,[1]; concentration: 10mM,1.57 ± 0.042
